The test concerns the target AA amyloid deposits in mice (TRIAD murine model of systemic AA amyloidosis) (mouse). In words: in vivo imaging with 125I-p5.

No constants are given. Whether binding was seen depends on the method and setting. A result given as binding can be weak or reduced; the word gives no strength.

For GGGYSKAQKAQAKQAKQAQKAQKAQAKQAKQ (125I on tyrosine) [peptide p5 (also called p31-GGGY)], the binding result is given as “binds”.

These data come from patent US20130022546A1.
